Paper doi:10.1101/2023.10.17.562760
These are yes or no findings as the source states them, for the method shown. Some binding calls cover weakened binding; strength is not graded here.

The chains behind the UniProt entries cited, without tags or fusion partners.
UniProt P28738, whole entry: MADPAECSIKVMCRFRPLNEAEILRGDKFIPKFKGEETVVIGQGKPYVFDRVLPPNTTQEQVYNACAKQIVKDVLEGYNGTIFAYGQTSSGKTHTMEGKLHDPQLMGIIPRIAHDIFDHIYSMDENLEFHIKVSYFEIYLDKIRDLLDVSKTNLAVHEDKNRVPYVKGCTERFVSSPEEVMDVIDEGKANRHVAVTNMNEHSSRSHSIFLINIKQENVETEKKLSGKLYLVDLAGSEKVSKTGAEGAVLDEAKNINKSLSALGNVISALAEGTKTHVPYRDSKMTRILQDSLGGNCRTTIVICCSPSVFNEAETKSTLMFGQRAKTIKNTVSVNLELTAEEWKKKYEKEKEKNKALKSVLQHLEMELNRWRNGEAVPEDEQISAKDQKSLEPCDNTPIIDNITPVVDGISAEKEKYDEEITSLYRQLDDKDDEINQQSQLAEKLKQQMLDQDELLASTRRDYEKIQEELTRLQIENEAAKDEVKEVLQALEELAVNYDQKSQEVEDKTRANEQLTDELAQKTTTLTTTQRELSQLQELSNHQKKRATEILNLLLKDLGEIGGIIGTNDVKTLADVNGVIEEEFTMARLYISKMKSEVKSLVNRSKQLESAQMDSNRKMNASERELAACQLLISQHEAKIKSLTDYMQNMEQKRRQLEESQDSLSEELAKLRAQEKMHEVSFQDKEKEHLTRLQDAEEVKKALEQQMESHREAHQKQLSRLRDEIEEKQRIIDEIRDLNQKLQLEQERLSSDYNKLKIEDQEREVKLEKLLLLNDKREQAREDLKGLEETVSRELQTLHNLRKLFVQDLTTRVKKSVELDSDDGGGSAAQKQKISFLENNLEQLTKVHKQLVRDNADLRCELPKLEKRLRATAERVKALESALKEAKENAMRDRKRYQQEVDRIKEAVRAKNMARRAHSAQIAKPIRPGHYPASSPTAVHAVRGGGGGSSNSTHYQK
UniProt O88447, whole entry: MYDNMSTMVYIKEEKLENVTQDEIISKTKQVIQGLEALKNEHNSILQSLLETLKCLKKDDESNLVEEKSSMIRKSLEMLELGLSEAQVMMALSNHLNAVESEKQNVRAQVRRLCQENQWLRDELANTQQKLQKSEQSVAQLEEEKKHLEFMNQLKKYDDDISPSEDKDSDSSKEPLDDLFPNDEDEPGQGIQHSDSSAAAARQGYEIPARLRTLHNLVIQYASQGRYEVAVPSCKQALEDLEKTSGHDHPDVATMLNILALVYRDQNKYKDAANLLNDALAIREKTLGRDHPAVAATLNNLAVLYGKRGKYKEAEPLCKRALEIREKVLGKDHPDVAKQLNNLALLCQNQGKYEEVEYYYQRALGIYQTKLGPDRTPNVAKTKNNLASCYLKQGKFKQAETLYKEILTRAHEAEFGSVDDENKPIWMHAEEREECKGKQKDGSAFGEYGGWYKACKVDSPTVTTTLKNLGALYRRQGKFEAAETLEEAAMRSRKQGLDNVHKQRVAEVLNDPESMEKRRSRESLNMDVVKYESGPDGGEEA

Molecular target: His-Kif5C (kinesin heavy chain, KHC), wild type, of Kinesin^WT (UniProt P28738)
Experiment: SEC

| binding | Substance |
| --- | --- |
| binds | His-Kif5C (kinesin heavy chain, KHC), wild type, of Kinesin^WT (from UniProt P28738 1-956) |
| binds | KLC1 isoform A (kinesin light chain, KLC) (from UniProt O88447 1-541) |
